Measurements reported in PubChem BioAssay AID686938 (Drosophila RNAi Screening Center, 2013).

Screen: 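Knock-downs reducing store-operated calcium influx in Drosophila cells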 (primary screen)
System: Drosophila S2R+ cells
Reagents: long dsRNA against Drosophila genes, about 0.25 µg dsRNA per well, roughly 10,000 cells
Timing: 5 days of knock-down before the calcium assay
Treatment: thapsigargin (SERCA pump blocker) to empty calcium stores; entry signal taken 4 min after adding it
Measured: 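Per-well fluo-4 fluorescence in two replicates, unnormalised, measured in resting cells and 4 min after store depletion by the SERCA blocker thapsigargin; ratio of the two present in few wells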
Direction: calcium entry signal: higher = stronger calcium signal after store depletion; resting calcium signal: higher = higher resting calcium signal
Units: calcium entry signal in fluorescence units; resting calcium signal in fluorescence units
Rule for the call: 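Hit if the duplicate-averaged plate z-score for entry over resting signal is under −3; wells with weak total dye signal (Fmax z < −2) or more than 5 off-targets removed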
Calls: active = strongly reduced calcium entry; inactive = no strong reduction
The deposit covers about 23,000 reagents; this is an unselected part of those with a known target gene and a result. Of all reagents, 75 (0.33%) got an active call. 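Raw plate signals without normalisation; calls rest on plate z-scores that were not deposited; ratio present for only 364 wells.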 The numbers tell different reagents against one gene apart. The record does not give: the dose of the treatment.

| Gene | reagent no. | calcium entry signal, replicate 1 | calcium entry signal, replicate 2 | resting calcium signal, replicate 1 | resting calcium signal, replicate 2 | Call |
| --- | --- | --- | --- | --- | --- | --- |
| Ypel | 1 | 3.95e7 | 4.28e7 | 1.83e7 | 1.91e7 | inactive |
| CG7296 | 1 | 3.66e7 | 5.47e7 | 1.69e7 | 2.67e7 | inactive |
| CG7296 | 2 | 3.27e7 | 6.24e7 | 1.55e7 | 2.86e7 | inactive |
| CG9098 | 1 | 5.73e7 | 3.56e7 | 2.36e7 | 1.51e7 | inactive |
| CG9098 | 2 | 5.09e7 | 2.70e7 | 2.56e7 | 1.31e7 | inactive |
| CG13992 | 1 | 3.60e7 | 3.99e7 | 1.74e7 | 1.79e7 | inactive |
| CG1575 | 1 | 2.02e7 | 2.05e7 | 9.38e6 | 1.08e7 | inactive |
| CG8939 | 1 | 3.09e7 | 3.22e7 | 1.56e7 | 1.65e7 | inactive |
| CG14102 | 1 | 3.19e7 | 4.93e7 | 1.52e7 | 2.19e7 | inactive |
| LeuRS | 1 | 2.38e7 | 2.46e7 | 1.26e7 | 1.17e7 | inactive |
| Coprox | 1 | 3.89e7 | 3.63e7 | 2.28e7 | 1.71e7 | inactive |
| CG30412 | 1 | 3.60e7 | 4.54e7 | 1.82e7 | 1.86e7 | inactive |
| CG6144 | 1 | 5.32e7 | 2.30e7 | 2.39e7 | 1.17e7 | inactive |
| ebd1 | 1 | 4.22e7 | 3.88e7 | 2.13e7 | 1.98e7 | inactive |
| CG32645 | 1 | 4.20e7 | 6.57e7 | 2.01e7 | 2.97e7 | inactive |
| CG32645 | 2 | 4.43e7 | 6.80e7 | 2.16e7 | 3.07e7 | inactive |
| CG11964 | 1 | 2.93e7 | 2.95e7 | 1.27e7 | 1.43e7 | inactive |
| CG32344 | 1 | 3.27e7 | 2.70e7 | 1.60e7 | 1.62e7 | inactive |
| RpL41 | 1 | 3.16e7 | 3.20e7 | 1.52e7 | 1.44e7 | inactive |
| wac | 1 | 3.44e7 | 4.15e7 | 1.82e7 | 1.91e7 | inactive |
| CG42724 | 1 | 2.57e7 | 3.65e7 | 1.09e7 | 1.39e7 | inactive |
| CG42724 | 2 | 2.31e7 | 6.75e7 | 1.11e7 | 2.84e7 | inactive |
| COX6B | 1 | 5.65e7 | 4.97e7 | 2.30e7 | 2.04e7 | inactive |
| shakB | 1 | 3.90e7 | 3.44e7 | 1.94e7 | 1.54e7 | inactive |
| shakB | 2 | 2.92e7 | 3.62e7 | 1.68e7 | 1.80e7 | inactive |
| shakB | 3 | 6.26e7 | 5.56e7 | 2.69e7 | 2.21e7 | inactive |
| shakB | 4 | 5.39e7 | 5.22e7 | 2.48e7 | 2.44e7 | inactive |
| shakB | 5 | 3.73e7 | 3.33e7 | 2.34e7 | 1.45e7 | inactive |
| shakB | 6 | 3.15e7 | 4.36e7 | 1.61e7 | 2.09e7 | inactive |
| CkIIalpha-i1 | 1 | 5.18e7 | 7.21e7 | 2.35e7 | 2.95e7 | inactive |
| fy | 1 | 3.24e7 | 4.62e7 | 1.68e7 | 1.91e7 | inactive |
| meso18E | 1 | 3.29e7 | 2.94e7 | 1.65e7 | 1.41e7 | inactive |
| Rchy1 | 1 | 2.22e7 | 2.40e7 | 1.29e7 | 1.20e7 | inactive |
| Rchy1 | 2 | 3.96e7 | 3.50e7 | 1.98e7 | 1.72e7 | inactive |
| CG2258 | 1 | 3.00e7 | 2.33e7 | 1.35e7 | 1.10e7 | inactive |
| COX4L | 1 | 3.52e7 | 3.82e7 | 1.90e7 | 1.72e7 | inactive |
| hbn | 1 | 4.35e7 | 5.12e7 | 2.39e7 | 2.53e7 | inactive |
| hbn | 2 | 5.21e7 | 5.51e7 | 2.48e7 | 2.59e7 | inactive |
| hbn | 3 | 5.46e7 | 5.96e7 | 2.62e7 | 2.58e7 | inactive |
| hbn | 4 | 2.94e7 | 3.15e7 | 1.68e7 | 1.44e7 | inactive |
| salto | 1 | 4.86e7 | 3.62e7 | 1.90e7 | 1.74e7 | inactive |
| CG33500 | 1 | 3.34e7 | 3.28e7 | 1.82e7 | 1.80e7 | inactive |
| CG11180 | 1 | 3.29e7 | 3.17e7 | 1.61e7 | 1.70e7 | inactive |
| GstE1 | 1 | 3.90e7 | 5.51e7 | 1.80e7 | 2.74e7 | inactive |
| fax | 1 | 3.46e7 | 3.91e7 | 1.68e7 | 2.55e7 | inactive |
| CG10738 | 1 | 3.05e7 | 3.37e7 | 1.65e7 | 1.69e7 | inactive |
| Prp5 | 1 | 1.94e7 | 2.21e7 | 1.13e7 | 1.14e7 | inactive |
| Alp5 | 1 | 4.67e7 | 3.96e7 | 2.27e7 | 1.76e7 | inactive |
| clu | 1 | 3.34e7 | 3.82e7 | 1.71e7 | 1.77e7 | inactive |
| CG5909 | 1 | 4.12e7 | 6.06e7 | 2.14e7 | 2.56e7 | inactive |
| CG7715 | 1 | 3.13e7 | 3.75e7 | 6.21e7 | 1.78e7 | inactive |
| CG7878 | 1 | 4.87e7 | 4.05e7 | 2.64e7 | 2.15e7 | inactive |
| CG32638 | 1 | 3.06e7 | 3.89e7 | 1.51e7 | 1.60e7 | inactive |
| TwdlV | 1 | 3.53e7 | 5.35e7 | 1.70e7 | 2.36e7 | inactive |
| GluRIA | 1 | 3.13e7 | 4.37e7 | 1.36e7 | 1.72e7 | inactive |
| Dscam3 | 1 | 4.53e7 | 5.09e7 | 2.15e7 | 8.19e7 | inactive |
| Dscam3 | 2 | 4.04e7 | 4.52e7 | 1.91e7 | 7.30e7 | inactive |
| lic | 1 | 3.60e7 | 3.67e7 | 1.63e7 | 1.82e7 | inactive |

Records above whose target name starts with L or l (2):
| Gene | reagent no. | calcium entry signal, replicate 1 | calcium entry signal, replicate 2 | resting calcium signal, replicate 1 | resting calcium signal, replicate 2 | Call |
| --- | --- | --- | --- | --- | --- | --- |
| LeuRS | 1 | 2.38e7 | 2.46e7 | 1.26e7 | 1.17e7 | inactive |
| lic | 1 | 3.60e7 | 3.67e7 | 1.63e7 | 1.82e7 | inactive |
